Laboratory results from PubChem BioAssay AID651640 (Broad Institute, 2012).
The whole screen tested about 350,000 compounds, of which about 6,000 (1.7%) were called active. This list was built around the results that the source calls inconclusive (neither active nor inactive); the mix of calls is not that of the screen. Rule as the data show it: active = CPE inhibition above about 20% (passing the limit was not always enough); inconclusive = no clear call, values can overlap the other calls; tested in BHK-21 cells.

experiment: protection of cells from dengue 2 killing – plate reader, single concentration, primary screen (AID 651640); settings: DENV2-infected cells, cytopathic effect rescue, at 9.99 µM, active compounds read high;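 also: 0% = median of neutral control wells and 100% = median of positive control wells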

| Compound | CPE inhibition |
| --- | --- |
| CN(C)CC(=O)N1CCCCN2[C@@H](CO)[C@H](c3ccc(-c4cccnc4)cc3)[C@@H]2C1 | active: 33.3% |
| O=C1C=C(C2CCCCC2)C(=O)c2ccccc21 | inactive: 15% |
| O=C(O)c1cccc(NS(=O)(=O)c2cccc(C(=O)Nc3ccccc3[N+](=O)[O-])c2)c1 | inconclusive: 27.6% |
| Cc1nc(NC(=O)C2CC2)sc1C(=O)Nc1ccccc1Cl | inactive: -0.149% |
| Cc1noc(C)c1S(=O)(=O)Nc1ccc2c(c1)C(=O)N([C@@H](C)CO)C[C@H](C)[C@H](CN(C)S(=O)(=O)c1ccc(Cl)cc1)O2 | inactive: -1.72% |
| CO[C@@H]1CN(C)C(=O)c2cc(NC(=O)c3cccc(F)c3)ccc2OC[C@@H](C)NC[C@@H]1C | inactive: -3.8% |
| COc1ccc(S(=O)(=O)Nc2ccc3c(c2)C(=O)N([C@@H](C)CO)C[C@@H](C)[C@@H](CN(C)S(=O)(=O)c2ccccc2)OCCCC[C@H](C)O3)cc1 | active: 21.2% |
| C[C@H](CO)N1C[C@H](C)[C@H](CN(C)CC2CCOCC2)Oc2cc(Br)ccc2S1(=O)=O | inconclusive: 37.1% |
| COc1ccc(NC(=O)N(C)C[C@H]2Oc3c(NC(=O)NC(C)C)cccc3C(=O)N([C@H](C)CO)C[C@@H]2C)cc1 | inactive: 1.18% |
| COc1ccc(/C=C/c2nnc(NC(=O)C(C)C)s2)cc1 | inconclusive: 22.2% |
| O=C(O)c1cc(NN=C2c3ccccc3-c3ccccc32)ccc1Cl | inactive: 4.68% |
| COc1ccc(C2CC(c3ccc4ccccc4c3)=NN2C(=O)CN2C(=O)CCC2=O)cc1 (centres undefined) | inconclusive: 25.7% |
| CC(/C=C/C1(O)C(C)CC(O)CC1(C)C)OC1OC(CO)C(O)C(O)C1O (centres undefined) | inconclusive: 53.4% |
| CCCNC(=O)[C@@H]1[C@@H](CO)[C@@H]2Cn3c(cccc3=O)[C@@H]2N1C(=O)C1CCCC1 | inactive: -2.23% |
| CC(C)NC(=O)N(C)C[C@H]1Oc2cc(C#Cc3cccc(F)c3)ccc2S(=O)(=O)N([C@@H](C)CO)C[C@@H]1C | inconclusive: 42.6% |
| CC1CC(C)CN(CCOc2cccc3ccccc23)C1 (centres undefined) | inconclusive: 24% |
| COC(=O)[C@]1(Cc2ccccc2)N[C@H](c2ccc(-c3cccc(Cl)c3)c(OC)c2)[C@@H]2C(=O)N(C)C(=O)[C@@H]21 | inconclusive: 33.5% |
| O=C(C[C@@H]1CC[C@H]2[C@@H](COC[C@H](O)CN2C(=O)Nc2cc(Cl)cc(Cl)c2)O1)N1CCOCC1 | inactive: -2.49% |
| C[C@H]1CN([C@@H](C)CO)C(=O)Cc2cc(NC(=O)c3ccncc3)ccc2O[C@H]1CN(C)C(=O)Nc1ccccc1 | inconclusive: 24.7% |
| CCCC#Cc1ccc2c(c1)O[C@H](CN(C)C(=O)NC(C)C)[C@@H](C)CN([C@H](C)CO)S2(=O)=O | inactive: -1.14% |
| CCO[C@@H]1OC(C(=O)NCc2nc3ccccc3[nH]2)=C[C@H](c2coc3ccccc3c2=O)[C@H]1CCCO | active: 50.2% |
| COc1ccc(-c2ccc(N(C)C)cc2)cc1[C@H]1[C@H]2C=CC[C@@H](C)[C@@H]2C(=O)N1Cc1ccccc1 | inconclusive: 48.9% |
| COC(=O)[C@H](Cc1ccccc1)NCCCn1cnc(C(=O)Nc2ccc(C)c(C)c2)n1 | inactive: -10.9% |
| Cc1cccc(NS(=O)(=O)c2ccc3c(c2)CCN3C(=O)CCC(=O)O)c1 | inconclusive: 55.4% |
| COc1ccccc1C(=O)Nc1ccc2c(c1)C(=O)N(C)C[C@@H](OC)[C@@H](C)CN[C@H](C)CO2 | inactive: 16.7% |

| Compound | CPE inhibition |
| --- | --- |
| CC[C@H]1c2[nH]c3ccccc3c2C[C@H]2C(=O)N(c3ccc(F)cc3)C(=O)N21 | active: 56.7% |
| CCn1cc(/C=C(\NC(=O)c2ccccc2OC)C(=O)NCCN2CCOCC2)c2ccccc21 | active: 21.6% |
| COC(=O)CCCNC(=O)c1ccc2nc(Cc3ccc(OC)cc3)oc2c1 | inconclusive: 36.1% |
| CCN(CC(=O)Nc1ccccc1OC)C(=O)CSCC(=O)Nc1cccc(C)c1 | inconclusive: 36% |
| Cc1noc(C)c1S(=O)(=O)N(C)C[C@@H]1OCCCC[C@@H](C)Oc2ccc(NC(=O)CCCCCC(=O)Nc3ccccc3N)cc2C(=O)N([C@H](C)CO)C[C@@H]1C | inactive: -2.89% |
| COCC(=O)N1[C@H](C#N)[C@@H](c2ccccc2)[C@H]1CO | inconclusive: 34.8% |
| O=C1NC[C@H](Cc2ccccc2)N(CC2CCN(CCc3ccccc3)CC2)C1=O | inconclusive: 45.7% |
| O=C(COc1ccc(F)cc1)Nc1cc(Cl)ccc1-n1cncn1 | inconclusive: 55.6% |
| CO[C@H]1CN(C)C(=O)c2ccc(NC(=O)c3ccccc3)cc2OC[C@H](C)N(C(=O)CN(C)C)C[C@H]1C | active: 29.5% |
| COc1ccc([C@H]2/C=C\CN(S(=O)(=O)c3cccc4cccnc34)[C@@H](C)C(=O)N2Cc2ccc(F)cc2)cc1 | inconclusive: 21.5% |
| COc1ccc(C#Cc2ccc3c(c2)O[C@@H](CN(C)C(C)=O)[C@@H](C)CN([C@H](C)CO)S3(=O)=O)cc1 | inactive: 10.8% |
| COC(=O)Cn1cnc2c(cnn2-c2ccc(OC)cc2)c1=O | inconclusive: 30.3% |
| CSCCNC(=O)C1(C)CCN1C(=O)c1cc(C)n(C)n1 (centres undefined) | inconclusive: 42.5% |
| Cn1cnc(S(=O)(=O)N2CCCCN3[C@H](CO)[C@H](c4ccc(-c5cccc(F)c5)cc4)[C@@H]3C2)c1 | inconclusive: 24.3% |
| CCC1CCCCN1CC(C)(C)NS(=O)(=O)c1ccccc1 (centres undefined) | inconclusive: 27.7% |
| Nc1ccc(/C=C/C(=O)c2cccs2)cc1 | inconclusive: 29.8% |
| CCc1ccc2c(c1)NC(=O)C2(C)Cc1ccccc1OC (centres undefined) | inconclusive: 30.2% |
| Cc1cccc(N=[N+]([O-])c2cccc(C)n2)n1 | active: 26.8% |
| COc1ccc(C)cc1C(=O)CCC(=O)N1CCN(c2ccccc2F)CC1 | inconclusive: 28.8% |
| Cc1ccccc1-c1ccc([C@@H]2[C@@H](CO)N3CCCCN(CC4CC4)C[C@H]23)cc1 | active: 52.2% |
| CCc1nc2ccc(C(=O)N(CC)CCN(C)C)cn2c1N(C)C(=O)c1cccc(OC)c1 | active: 26.4% |
| C[C@@H]1CN([C@H](C)CO)S(=O)(=O)c2ccc(C#CC(C)(C)O)cc2O[C@H]1CN(C)Cc1ccc(-c2ccccc2)cc1 | inconclusive: 21.2% |
| COC(=O)COc1ccc(/C=N/NC(=O)c2ccc(N(Cc3ccccc3)S(C)(=O)=O)cc2)cc1 | inconclusive: 41.6% |
| CCCCCC(=O)NC1CCCCN(C)C1=O (centres undefined) | active: 75.5% |
| C[C@@H]1CN([C@@H](C)CO)C(=O)c2cc(NC(=O)Nc3ccc4c(c3)OCO4)ccc2O[C@@H]1CN(C)Cc1ccccc1 | inactive: 4.43% |

| Compound | CPE inhibition |
| --- | --- |
| O=C(CNC(=O)c1cccs1)NC1=NCCS1 | inconclusive: 23.9% |
| CCOc1ccccc1NC(=O)c1ccc(CN2CCc3ccccc3C2)cc1 | inconclusive: 29.8% |
| COc1ccccc1NC(=O)C(C)OC(=O)C1CCN(S(=O)(=O)c2ccccc2C(F)(F)F)CC1 (centres undefined) | active: 54.1% |
| CC(=O)N1CCN(C(=O)COC(=O)CNC(=O)c2ccc(C)cc2)CC1 | inconclusive: 39.2% |
| CN1C(=O)C2CC(O)C(SC3CC4C(=O)N(C)C(=O)C4CC3O)CC2C1=O (centres undefined) | inconclusive: 25.4% |
| CC(=O)N1[C@@H]2Cn3c(ccc(C4=CCCC4)c3=O)[C@H]1[C@@H](C(=O)NC1CCCC1)[C@@H]2CO | inconclusive: 22.4% |
| N#C[C@@H]1[C@@H](c2ccc(-c3cccc(F)c3)cc2)[C@H](CO)N1c1nc(-c2ccccc2)cs1 | active: 90.5% |
| COc1ccc2c3c([nH]c2c1)[C@@H](CO)N(Cc1ccccc1Cl)CC31CCN(C(=O)C2CC2)CC1 | inconclusive: 24.2% |
| CN(Cc1ccccc1)C(=O)c1[nH]cnc1C(=O)NCc1ccccc1 | inactive: 0.149% |
| CCNC(=O)C[C@@H]1CC[C@H]2[C@@H](COc3ccc(NC(=O)Nc4cccc(C)c4)cc3C(=O)N2C)O1 | inconclusive: 21.3% |
| C=C(C)C(=O)OCC(=O)NCc1ccccc1 | inactive: -4.15% |
| CCC(=O)N(CCc1ccccc1C)Cc1cc2ccc(C)cc2[nH]c1=O | inconclusive: 38.3% |
| C[C@@H]1CN([C@H](C)CO)C(=O)c2cc(C#C[C@@H](C)O)cnc2O[C@@H]1CN(C)C(=O)c1ccc(F)cc1 | inactive: 6.89% |
| CN(CC(=O)Nc1c(Cl)cccc1Cl)C(=O)c1ccc(NS(=O)(=O)c2ccc3[nH]c(=O)[nH]c3c2)cc1 | active: 40.4% |
| O=C(CCNC(=O)c1ccc([N+](=O)[O-])cc1)Nc1ccc(F)cc1 | inconclusive: 30.2% |
| O=C(CN1CCOCC1)NNC(=O)c1ccc([N+](=O)[O-])cc1 | inconclusive: 22.8% |
| OC(c1ccc2ccccc2c1)c1ncc(-c2cccc3ccccc23)[nH]1 (centres undefined) | inconclusive: 56.1% |
| CC(C)(C)C(c1nc2ccccc2[nH]1)n1c(Cc2csc3ccccc23)nc2ccccc21 (centres undefined) | inconclusive: 33.4% |
| Fc1ccc(F)c(C2=NNC(=Nc3ccccc3F)SC2)c1 | active: 86.4% |
| O=C(Cc1n[nH]c(=O)c2ccccc12)N1CCN(c2ccc(F)cc2)CC1 | inactive: -10.5% |
| O=C(N[C@H]1CC[C@H](CC(=O)N2CCCCC2)O[C@@H]1CO)c1ccccn1 | active: 28% |
| CCN(C(=O)CN1CCN(C)CC1)c1c(N)n(Cc2ccccc2)c(=O)[nH]c1=O | inconclusive: 36.5% |
| Cc1cccc(C=NNc2cc(C)c3cccc(C)c3n2)n1 | inconclusive: 42.5% |
| Cc1ccc(S(=O)(=O)N2CCN(CC(O)COc3ccccc3)CC2)cc1 (centres undefined) | inactive: 1.15% |

A second format for 16 compounds above.
Compound | CPE inhibition
COc1ccc2c3c([nH]c2c1)[C@@H](CO)N(Cc1ccccc1Cl)CC31CCN(C(=O)C2CC2)CC1 | inconclusive: 24.2%
CN(Cc1ccccc1)C(=O)c1[nH]cnc1C(=O)NCc1ccccc1 | inactive: 0.149%
CCNC(=O)C[C@@H]1CC[C@H]2[C@@H](COc3ccc(NC(=O)Nc4cccc(C)c4)cc3C(=O)N2C)O1 | inconclusive: 21.3%
C=C(C)C(=O)OCC(=O)NCc1ccccc1 | inactive: -4.15%
CCC(=O)N(CCc1ccccc1C)Cc1cc2ccc(C)cc2[nH]c1=O | inconclusive: 38.3%
C[C@@H]1CN([C@H](C)CO)C(=O)c2cc(C#C[C@@H](C)O)cnc2O[C@@H]1CN(C)C(=O)c1ccc(F)cc1 | inactive: 6.89%
CN(CC(=O)Nc1c(Cl)cccc1Cl)C(=O)c1ccc(NS(=O)(=O)c2ccc3[nH]c(=O)[nH]c3c2)cc1 | active: 40.4%
O=C(CCNC(=O)c1ccc([N+](=O)[O-])cc1)Nc1ccc(F)cc1 | inconclusive: 30.2%
O=C(CN1CCOCC1)NNC(=O)c1ccc([N+](=O)[O-])cc1 | inconclusive: 22.8%
OC(c1ccc2ccccc2c1)c1ncc(-c2cccc3ccccc23)[nH]1 (centres undefined) | inconclusive: 56.1%
CC(C)(C)C(c1nc2ccccc2[nH]1)n1c(Cc2csc3ccccc23)nc2ccccc21 (centres undefined) | inconclusive: 33.4%
Fc1ccc(F)c(C2=NNC(=Nc3ccccc3F)SC2)c1 | active: 86.4%
O=C(Cc1n[nH]c(=O)c2ccccc12)N1CCN(c2ccc(F)cc2)CC1 | inactive: -10.5%
O=C(N[C@H]1CC[C@H](CC(=O)N2CCCCC2)O[C@@H]1CO)c1ccccn1 | active: 28%
CCN(C(=O)CN1CCN(C)CC1)c1c(N)n(Cc2ccccc2)c(=O)[nH]c1=O | inconclusive: 36.5%
Cc1cccc(C=NNc2cc(C)c3cccc(C)c3n2)n1 | inconclusive: 42.5%

Laid out differently: entries from further up
Compound	CPE inhibition
O=C(C[C@@H]1CC[C@H]2[C@@H](COC[C@H](O)CN2C(=O)Nc2cc(Cl)cc(Cl)c2)O1)N1CCOCC1	inactive: -2.49%
CN(Cc1ccccc1)C(=O)c1[nH]cnc1C(=O)NCc1ccccc1	inactive: 0.149%
